Twelve molecules from patent publication US20250129155A1 (INNOBATION BIO, published 2025) can be followed below.

By UniProt entry, the sequences of proteins in these tests, tags left out. Residues count along the entry.
UniProt Q08722, residues 19-139: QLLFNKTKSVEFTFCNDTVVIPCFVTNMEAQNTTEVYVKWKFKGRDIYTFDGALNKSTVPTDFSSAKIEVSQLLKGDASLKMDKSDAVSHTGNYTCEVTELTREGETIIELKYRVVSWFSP

Results are given in words; binding and its absence hold for the method and conditions named. Some binding calls cover weakened binding; strength is not graded here. Tags and fused reporters may be left off the sequences shown.

B1: Hu3A5(V11) antibody (antibody, V domains shown)
VH: EVQLVQSGSELKKPGASVKVSCKASGYTFTSYWMHWMRQAPGQGLEWIGVIDPSDSYTSYNQGFTGRFVLSVDTSVSTAYLQISSLKAEDTAVYYCARGGKRAMDYWGQGTTVTVSS
VL: DVVMTQSPDSLAVSLGERATINCKSSQSLVHSNGNTYLHWYQQKPGQPPKLLIYKVSNRFSGVPDRFSGSGSGTDFTLTISSLQAEDVAVYFCSQSTHVPFTFGGGTKLEIK
B2: Hu3A5(V12) antibody (antibody, V domains shown)
VH: EVQLVQSGSELKKPGASVKVSCKASGYTFTSYWMHWMRQAPGQGLEWIGVIDPSDSYTSYNQGFTGRFVLSVDTSVSTAYLQISSLKAEDTAVYYCARGGKRAMDYWGQGTTVTVSS
VL: DVVMTQSPDSLAVSLGERATINCKSSQSLVHSNGNTYLHWYQQKPGQPPKLLIYKVSNRFSGVPDRFSGSGSGTDFTLTISSLQAEDVAVYYCSQSTHVPFTFGGGTKLEIK
B3: Hu3A5(V1) antibody (antibody, V domains shown)
VH: EVQLVQSGAEVKKPGASVKVSCKASGYTFTSYWMHWMRQAPGQGLEWIGVIDPSDSYTSYNQKFQGRVTLTVDTSTSTAYMELSSLRSEDTAVYYCARGGKRAMDYWGQGTTVTVSS
VL: DVVMTQSPLSLPVTLGQPASISCRSSQSLVHSNGNTYLHWFQQRPGQSPRLLIYKVSNRFSGVPDRFSGSGSGTDFTLKISRVEAEDVGVYFCSQSTHVPFTFGGGTKLEIK
B4: Hu3A5 (V9) antibody (antibody, V domains shown)
VH: EVQLVQSGSELKKPGASVKVSCKASGYTFTSYWMHWMRQAPGQGLEWIGVIDPSDSYTSYNQGFTGRFVLSVDTSVSTAYLQISSLKAEDTAVYYCARGGKRAMDYWGQGTTVTVSS
VL: DVVMTQSPLSLPVTLGQPASISCRSSQSLVHSNGNTYLHWFQQRPGQSPRLLIYKVSNRFSGVPDRFSGSGSGTDFTLKISRVEAEDVGVYFCSQSTHVPFTFGGGTKLEIK
B5: Hu3A5 (V3) antibody (antibody, V domains shown)
VH: EVQLVQSGAEVKKPGASVKVSCKASGYTFTSYWMHWMRQAPGQGLEWIGVIDPSDSYTSYNQKFQGRVTLTVDTSTSTAYMELSSLRSEDTAVYYCARGGKRAMDYWGQGTTVTVSS
VL: DVVMTQSPDSLAVSLGERATINCKSSQSLVHSNGNTYLHWYQQKPGQPPKLLIYKVSNRFSGVPDRFSGSGSGTDFTLTISSLQAEDVAVYFCSQSTHVPFTFGGGTKLEIK
B6: Hu3A5(V10) antibody (antibody, V domains shown)
VH: EVQLVQSGSELKKPGASVKVSCKASGYTFTSYWMHWMRQAPGQGLEWIGVIDPSDSYTSYNQGFTGRFVLSVDTSVSTAYLQISSLKAEDTAVYYCARGGKRAMDYWGQGTTVTVSS
VL: DVVMTQSPLSLPVTLGQPASISCRSSQSLVHSNGNTYLHWFQQRPGQSPRLLIYKVSNRFSGVPDRFSGSGSGTDFTLKISRVEAEDVGVYYCSQSTHVPFTFGGGTKLEIK
notes: also called humanized 3A5(V10) antibody; humanized Hu3A5(V10) antibody
B7: Hu3A5 (V6) antibody (antibody, V domains shown)
VH: QVQLVQSGAEVKKPGASVKVSCKASGYTFTSYWMHWVRQAPGQGLEWMGVIDPSDSYTSYNQKFQGRVTMTVDTSTSTAYMELSSLRSEDTAVYYCARGGKRAMDYWGQGTTVTVSS
VL: DVVMTQSPLSLPVTLGQPASISCRSSQSLVHSNGNTYLHWFQQRPGQSPRLLIYKVSNRFSGVPDRFSGSGSGTDFTLKISRVEAEDVGVYYCSQSTHVPFTFGGGTKLEIK
B8: Hu3A5 (V8) antibody (antibody, V domains shown)
VH: QVQLVQSGAEVKKPGASVKVSCKASGYTFTSYWMHWVRQAPGQGLEWMGVIDPSDSYTSYNQKFQGRVTMTVDTSTSTAYMELSSLRSEDTAVYYCARGGKRAMDYWGQGTTVTVSS
VL: DVVMTQSPDSLAVSLGERATINCKSSQSLVHSNGNTYLHWYQQKPGQPPKLLIYKVSNRFSGVPDRFSGSGSGTDFTLTISSLQAEDVAVYYCSQSTHVPFTFGGGTKLEIK
B9: Hu3A5 (V4) antibody (antibody, V domains shown)
VH: EVQLVQSGAEVKKPGASVKVSCKASGYTFTSYWMHWMRQAPGQGLEWIGVIDPSDSYTSYNQKFQGRVTLTVDTSTSTAYMELSSLRSEDTAVYYCARGGKRAMDYWGQGTTVTVSS
VL: DVVMTQSPDSLAVSLGERATINCKSSQSLVHSNGNTYLHWYQQKPGQPPKLLIYKVSNRFSGVPDRFSGSGSGTDFTLTISSLQAEDVAVYYCSQSTHVPFTFGGGTKLEIK
B10: Hu3A5 (V2) antibody (antibody, V domains shown)
VH: EVQLVQSGAEVKKPGASVKVSCKASGYTFTSYWMHWMRQAPGQGLEWIGVIDPSDSYTSYNQKFQGRVTLTVDTSTSTAYMELSSLRSEDTAVYYCARGGKRAMDYWGQGTTVTVSS
VL: DVVMTQSPLSLPVTLGQPASISCRSSQSLVHSNGNTYLHWFQQRPGQSPRLLIYKVSNRFSGVPDRFSGSGSGTDFTLKISRVEAEDVGVYYCSQSTHVPFTFGGGTKLEIK
B11: Hu3A5 (V5) antibody (antibody, V domains shown)
VH: QVQLVQSGAEVKKPGASVKVSCKASGYTFTSYWMHWVRQAPGQGLEWMGVIDPSDSYTSYNQKFQGRVTMTVDTSTSTAYMELSSLRSEDTAVYYCARGGKRAMDYWGQGTTVTVSS
VL: DVVMTQSPLSLPVTLGQPASISCRSSQSLVHSNGNTYLHWFQQRPGQSPRLLIYKVSNRFSGVPDRFSGSGSGTDFTLKISRVEAEDVGVYFCSQSTHVPFTFGGGTKLEIK
B12: Hu3A5 (V7) antibody (antibody, V domains shown)
VH: QVQLVQSGAEVKKPGASVKVSCKASGYTFTSYWMHWVRQAPGQGLEWMGVIDPSDSYTSYNQKFQGRVTMTVDTSTSTAYMELSSLRSEDTAVYYCARGGKRAMDYWGQGTTVTVSS
VL: DVVMTQSPDSLAVSLGERATINCKSSQSLVHSNGNTYLHWYQQKPGQPPKLLIYKVSNRFSGVPDRFSGSGSGTDFTLTISSLQAEDVAVYFCSQSTHVPFTFGGGTKLEIK

The target in this assay is CD47 protein (Acrobiosystems, cat #CD7-HA2E9) (UniProt Q08722). The assay can be described thus: ELISA, CD47 protein coated. (In general: ELISA stands for enzyme-linked immunosorbent assay.)
On to B1, for which the binding result is reported as “binds”.

Take B2: the binding entry is on record as “binds”.

Turning to B3, the binding result is reported as “binds”.

As for B4, the binding result is recorded as “binds”.

As to B5, the binding entry is on record as “binds”.

On to B6, for which the binding entry is on record as “binds”.

Turning to B7, the binding entry is reported as “binds”.

Consider B8, for which the binding entry is “binds”.

With B9, the binding result is listed as “binds”.

For the molecule B10, the binding entry was “binds”.

For the molecule B11, the binding result was “binds”.

Regarding B12, the binding result is “binds”.
